Laboratory results: paper PMC8615847

Sequences of proteins named here, by UniProt entry; tags and fusion partners are left off.
UniProt O55242: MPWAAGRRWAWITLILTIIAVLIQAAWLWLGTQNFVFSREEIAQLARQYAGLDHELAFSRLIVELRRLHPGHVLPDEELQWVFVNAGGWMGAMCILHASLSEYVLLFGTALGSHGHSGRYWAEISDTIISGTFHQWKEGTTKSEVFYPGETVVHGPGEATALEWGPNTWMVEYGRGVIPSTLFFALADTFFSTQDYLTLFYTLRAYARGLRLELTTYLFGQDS

Columns and labels:
[1] = target: recombinant murine voltage-dependent calcium channel subunit delta2, (α2)δ2 peptide (mouse) (UniProt Q6PHS9); test: pull-down; (α2)δ2 peptides with σ1R, HINT1 or CaM and the effect of calcium, by the protocol used for immobilised (α2)δ1 (Supplementary Figure S9A-C); both purified
[2] = target: recombinant murine voltage-dependent calcium channel subunit delta2, (α2)δ2 peptide (mouse) (UniProt Q6PHS9); test: pull-down; (α2)δ2 peptides with NR1 C1 when the NR1 C1 HR1-HR2 interaction was disrupted (Supplementary Figure S9D); both purified
[3] = compound: C terminal truncated (−30 aa) (α2)δ1 peptide (mouse); test: pull-down; (α2)δ1 peptides (full or truncated) covalently attached to NHS-activated Sepharose; prey 100 nM (σ1R 30 or 100 nM, or increasing) in 300 µL 50 mM Tris-HCl pH 7.4, 0.2% CHAPS, increasing CaCl2 or 2.5 mM CaCl2, 30 min at RT; Western blot; no disrupting NR1 peptide; both purified

| binding [1] | binding [2] | binding [3] | Molecule |
| --- | --- | --- | --- |
| binds | – | – | recombinant sigma 1 receptor (from UniProt O55242 1-223) |
| – | binds | – | cytosolic C0-C1-C2 region of the glutamate NMDAR NR1 subunit (from UniProt P35438-1 834-938) (domain or fragment) |
| no binding | – | binds | recombinant histidine triad nucleotide-binding protein 1 (protein, UniProt P70349 1-126) MADEIAKAQVAQPGGDTIFGKIIRKEIPAKIIFEDDRCLAFHDISPQAPTHFLVIPKKHISQISVADDDDESLLGHLMIVGKKCAADLGLKRGYRMVVNEGADGGQSVYHIHLHVLGGRQMNWPPG |

These are yes or no findings as the source states them, for the method shown. Binding can be weak; no strength is given. For some of these results: Sequences can lack the tags named with a protein.
